Laboratory results taken from PubChem BioAssay AID2685 (National Center for Advancing Translational Sciences (NCATS), 2010).
This is one part of the list. Shown are side measurements of this screen, not its main read-out; they come without a call. Most of these compounds were active or inconclusive in the main read-out, so they are no random draw. Potencies come from curve fits of mixed quality, noted in brackets.

Assay: qHTS Assay for Lipid Storage Modulators in Drosophila S3 Cells;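 on cell number change: cells counted by Cell Tracker Red CMTPX staining in the red channel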
Settings: BODIPY lipid droplet fluorescence, 18-24 h; for cell number change: measured here: cell count max response, cells fed with added oleic acid
In short: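 Drosophila S3 cells got compounds at several concentrations plus oleic acid (400 uM solution). Laser-scanning cytometry with 488 nm excitation read lipid droplets at 500-530 nm and cells at 575-640 nm. Percent activity was relative to 20 uM Triacsin C.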

[1] = measured here: cell number channel AC50, cells fed with added oleic acid
[2] = measured here: lipid fluorescence (Fed channel) AC50, cells fed with added oleic acid

| Structure (SMILES) | cell number change | AC50 [1] | AC50 [2] |
| --- | --- | --- | --- |
| O=C(NCc1nnc2n1CCCCC2)c1ccc(Cl)cc1Cl | 19.8% |  |  |
| CC(C)Oc1ccc(C(CC(=O)O)NC(=O)c2cccs2)cc1 (stereo not given) | -26.7% | 3.66 µM [falling, full curve, poor fit] | 3.66 µM [falling, full curve] |
| O=C1C=C(O)c2c(O)cccc2C1=O | 5.24% |  | 6.51 µM [rising, single point] |
| COCCOCCOCCC(=O)NC1CC2CCC1(C)C2(C)C (stereo not given) | 2.16% |  |  |
| COc1ccc(CNC(=O)[C@H](C)NC(=O)N2CCn3c2nc2ccccc23)cc1 | 38.3% | 29.1 µM [rising, single point] |  |
| CCCCC/C(=N\NC(=O)Nc1ccccc1)c1ccccc1 | -11.1% |  | 0.103 µM [falling, full curve, poor fit] |
| CC/C(C)=N\NC(=O)CNC(=O)c1ccc(Cl)cc1Cl | 7.27% |  |  |
| Cc1ccc2ccccc2c1COC(=O)c1nonc1N | -43.2% | 18.4 µM [falling, single point] |  |
| Cc1ccccc1-n1nc(C)c2cc(C(=O)N3CCN(S(=O)(=O)c4ccccc4)CC3)sc21 | -6.97% |  | 1.03 µM [rising, full curve] |
| O=C(c1ccccc1)N(c1ccccc1)C1C=CS(=O)(=O)C1 (stereo not given) | 16% | 4.11 µM [falling, single point] |  |
| Cc1cc(=O)oc(C)c1C(=O)N[C@@H](Cc1ccccc1)C(=O)O | 4.5% |  | 29.1 µM [rising, single point] |
| Cc1cccc(CSCCNC(=O)CCSc2ccccc2)c1 | -30.5% | 29.1 µM [falling, single point] | 18.4 µM [falling, single point] |
| COc1cccc(CN(C)C(=O)c2ccc(COc3ccc(Cl)cc3)cc2)c1OC | 14.3% |  | 29.1 µM [rising, single point] |
| Cn1c(CSCc2ccc(Cl)cc2)n[nH]c1=S |  |  | 29.1 µM [rising, single point] |
| Cc1c(NC(=O)c2ccc(NC(=O)C3CC3)cc2)cccc1C(=O)O | 26.4% |  | 12.6 µM [rising, partial curve] |
| CC1(C)CC(=O)N(CC(=O)O)c2ccccc2S1(=O)=O | 4.82% | 0.13 µM [falling, full curve, poor fit] |  |
| CC(=O)c1ccc(N2CCN(S(=O)(=O)c3ccc4c5c3CC(=O)N5CC(C)S4)CC2)cc1 (stereo not given) | -2.75% |  |  |
| C=CCNC(=O)c1cc(-c2ccc3c(c2)OCO3)on1 | 14.9% |  |  |
| CCCn1c2ccccc2c2nnc(SCc3[nH]c(=O)[nH]c3C(=O)CCCCC(=O)OCC)nc21 | -44% | 23.1 µM [falling, single point] |  |
| Cc1ccc(C(C)C)cc1OCCN1CCCC1 | 33.3% | 0.116 µM [rising, full curve, poor fit] |  |
| Cc1ccccc1/C=N/Nc1ccnc2cc(Cl)ccc12 | -84.5% | 29.1 µM [falling, single point] | 1.3 µM [rising, partial curve] |

| Structure (SMILES) | cell number change | AC50 [1] | AC50 [2] |
| --- | --- | --- | --- |
| Brc1cc2[nH]cnc2c2ccccc12 |  | 2.91 µM [rising, partial curve] |  |
| N#Cc1cccc(S(=O)(=O)NCC(=O)NCCCc2ccccc2)c1 | 12.2% |  | 8.2 µM [rising, partial curve, poor fit] |
| CN1CCc2nc(SC(C(=O)O)c3ccccc3)c(C#N)c(-c3cccs3)c2C1 (stereo not given) | 7.67% |  | 5.17 µM [falling, partial curve] |
| Cc1cc(Cl)nc2c(C(C)C)cccc12 | -45.1% | 3.26 µM [falling, partial curve, poor fit] |  |
| CCN(CC)S(=O)(=O)c1ccc(N2CCOCC2)c(NC(=O)c2cc(=O)[nH]c3ccccc23)c1 |  |  | 0.58 µM [rising, single point] |
| Cc1ccccc1OCC(=O)Nc1ccc2c(c1)C(=O)N(CCC(=O)O)C2=O | 9.09% |  | 0.0731 µM [rising, full curve, poor fit] |
| O=C1Nc2ccccc2/C1=C/c1cnc(-c2ccccc2)[nH]1 | 16.3% |  | 29.1 µM [falling, single point] |
| COc1ccc(N2CC(C(=O)NC3CCSC3=O)CC2=O)cc1 (stereo not given) | 7.89% | 3.66 µM [falling, single point] |  |
| Cc1[nH]c2ccccc2c1C(=O)CSC(=S)N(C)C1CCCCC1 | -0.884% |  |  |
| COc1ccc(C(=O)NNC(=O)C(=O)N2CCCCC2)cc1OC | -2.35% |  | 25.9 µM [rising, single point] |
| CCOc1ccc(Nc2nc(N3CCCCC3)nc(N3CCCCC3)n2)cc1 | -10.9% |  |  |
| N/C(=N\OC(=O)Oc1ccccc1)c1ccc(Br)cc1 | 41.2% | 18.4 µM [rising, single point] | 0.731 µM [falling, single point] |
| CCOc1ccccc1NC(=O)c1ccc(S(=O)(=O)N(C)c2ccccc2)cc1 | 16.3% |  | 29.1 µM [rising, single point] |
| O=C1CCC(=O)N1c1ccc(S(=O)(=O)Nc2cccc(Br)c2)cc1 | 43.6% | 29.1 µM [rising, single point] |  |
| COc1ccccc1CNC(=O)[C@H](C)NC(=O)C1CCN(C(=O)[C@@H](N)Cc2ccccc2)CC1 | 23% |  | 20.6 µM [rising, partial curve] |
| CCOC(=O)C1CCN(C(=O)c2ccccc2N(C)S(C)(=O)=O)CC1 | -2.03% |  | 29.1 µM [falling, single point] |
| O=C1C=C(c2ccc(-c3ccccc3)cc2)C[C@@H](c2ccc(Cl)cc2)C1 | -3.38% | 0.146 µM [falling, full curve, poor fit] | 0.164 µM [falling, full curve, poor fit] |
| CN(C(=O)c1cc(COc2ccc(F)c(F)c2)on1)C1CCOC1 (stereo not given) | -28.1% |  | 6.51 µM [rising, single point] |
| Cc1ccc(Sc2oc(/C=N/n3cnnc3)cc2Br)cc1 | 1.55% |  | 0.0058 µM [rising, full curve, poor fit] |
| CCN1CCc2c(sc(NC(=O)C3CCCCC3)c2C(=O)OC)C1 | -18.4% |  | 6.51 µM [rising, single point] |
| CC(=O)c1ccc(NC(=S)NC(C)c2ccc(Cl)cc2Cl)cc1 (stereo not given) | 2.81% |  | 16.4 µM [falling, partial curve] |

Copied from the results shown, two compounds:

| Structure (SMILES) | cell number change | AC50 [1] | AC50 [2] |
| --- | --- | --- | --- |
| O=C(NCc1nnc2n1CCCCC2)c1ccc(Cl)cc1Cl | 19.8% |  |  |
| CC(C)Oc1ccc(C(CC(=O)O)NC(=O)c2cccs2)cc1 (stereo not given) | -26.7% | 3.66 µM [falling, full curve, poor fit] | 3.66 µM [falling, full curve] |

Later entries.

| Structure (SMILES) | cell number change | AC50 [1] | AC50 [2] |
| --- | --- | --- | --- |
| Cc1nc2ccccc2n1CC(O)Cn1c(C(F)(F)F)nc2ccccc21 (stereo not given) | -23.5% |  | 29.1 µM [falling, single point] |
| Cc1ccc(C(=O)NC2CCCCCCC2)c(Cl)c1 | 12% |  |  |
| CC(=O)N(Cc1ccc(F)cc1)c1cccc(C)c1C | 6.43% |  |  |
| O=[N+]([O-])c1ccc2nc(-c3ccccc3)oc2c1 | -1.59% | 0.651 µM [rising, single point] |  |
| Cc1onc(-c2ccccc2Cl)c1C(=O)Nc1cccc2nsnc12 | 13% |  | 1.64 µM [rising, full curve] |
| COc1ccc(-c2nc(C3CCCCC3)c3cc(OC)ccc3n2)cc1 | -6.86% |  |  |
| Cc1cc(C(=O)Nc2sc(C)c(C)c2C#N)c(C)o1 | 130% | 9.2 µM [rising, partial curve] | 7.31 µM [rising, partial curve] |
| O=C(CSc1nnc(NC2CCCCC2)s1)NCc1ccco1 | 7.44% | 1.16 µM [rising, full curve] | 0.82 µM [rising, full curve] |
| c1cnc2c(OCc3cn4cccnc4n3)cccc2c1 | 49.5% | 0.231 µM [rising, partial curve] |  |
| O=S(=O)(NCc1ccc(F)cc1)c1ccc(-c2cnc(C3CC3)o2)cc1 | -65.6% | 20.6 µM [falling, partial curve, poor fit] | 20.6 µM [falling, single point] |
| Cc1ccccc1CN1C(=O)/C(=C\c2ccc(C(=O)NCCN3CCOCC3)cc2)Sc2ccccc21 | -31.8% | 16.4 µM [falling, partial curve, poor fit] | 5.8 µM [falling, partial curve] |
| O=c1c2c([nH]c3ccccc13)CCCCCC2 |  | 0.326 µM [falling, partial curve, poor fit] |  |
| CCOC(=O)/C(=C\c1cccnc1)C(=O)c1cc(C(C)=O)c(Nc2ccccc2)s1 | -84.6% | 29.1 µM [falling, single point] | 29.1 µM [falling, single point] |
| Cc1c(C(=O)N2CCCC2)oc2c1-c1nn(CC(=O)NCCCOC(C)C)cc1CC2 | 42.2% | 29.1 µM [rising, single point] |  |
| O=C(O)CC(C(=O)O)c1cn(Cc2ccccc2)c2ccccc12 (stereo not given) | 6.82% |  | 0.731 µM [falling, full curve, poor fit] |
| Cn1c(O)c(/C=C2\C=Nc3ccccc32)sc1=Nc1ccc(C(=O)O)cc1 | -8.97% | 0.231 µM [falling, full curve, poor fit] | 0.731 µM [falling, full curve] |
| Cc1ccc(N(C(=O)CNC(=O)c2ccco2)C(C(=O)NC2CCCCC2)c2cccnc2)cc1F (stereo not given) | -6.67% |  | 29.1 µM [rising, partial curve] |
| S=C(NCCCN1CCOCC1)N1CCN(c2ccccc2)CC1 |  |  | 6.51 µM [rising, single point] |
| CCOc1ccccc1-n1c(SCC(N)=O)nnc1-c1ccco1 | -1.21% |  | 0.58 µM [rising, single point] |
| Nc1c(C(=O)OCC2CCCO2)c2nc3ccccc3nc2n1C1CCCCC1 (stereo not given) | 15.4% |  | 0.82 µM [rising, full curve] |
